In publication PMC10406855:
These are yes or no findings as the source states them, for the method shown. Binding seen in cells or lysates may run through a third protein. Some binding calls cover weakened binding; strength is not graded here.

Chains of the proteins cited; added tags and fusions are not shown.
UniProt Q08211: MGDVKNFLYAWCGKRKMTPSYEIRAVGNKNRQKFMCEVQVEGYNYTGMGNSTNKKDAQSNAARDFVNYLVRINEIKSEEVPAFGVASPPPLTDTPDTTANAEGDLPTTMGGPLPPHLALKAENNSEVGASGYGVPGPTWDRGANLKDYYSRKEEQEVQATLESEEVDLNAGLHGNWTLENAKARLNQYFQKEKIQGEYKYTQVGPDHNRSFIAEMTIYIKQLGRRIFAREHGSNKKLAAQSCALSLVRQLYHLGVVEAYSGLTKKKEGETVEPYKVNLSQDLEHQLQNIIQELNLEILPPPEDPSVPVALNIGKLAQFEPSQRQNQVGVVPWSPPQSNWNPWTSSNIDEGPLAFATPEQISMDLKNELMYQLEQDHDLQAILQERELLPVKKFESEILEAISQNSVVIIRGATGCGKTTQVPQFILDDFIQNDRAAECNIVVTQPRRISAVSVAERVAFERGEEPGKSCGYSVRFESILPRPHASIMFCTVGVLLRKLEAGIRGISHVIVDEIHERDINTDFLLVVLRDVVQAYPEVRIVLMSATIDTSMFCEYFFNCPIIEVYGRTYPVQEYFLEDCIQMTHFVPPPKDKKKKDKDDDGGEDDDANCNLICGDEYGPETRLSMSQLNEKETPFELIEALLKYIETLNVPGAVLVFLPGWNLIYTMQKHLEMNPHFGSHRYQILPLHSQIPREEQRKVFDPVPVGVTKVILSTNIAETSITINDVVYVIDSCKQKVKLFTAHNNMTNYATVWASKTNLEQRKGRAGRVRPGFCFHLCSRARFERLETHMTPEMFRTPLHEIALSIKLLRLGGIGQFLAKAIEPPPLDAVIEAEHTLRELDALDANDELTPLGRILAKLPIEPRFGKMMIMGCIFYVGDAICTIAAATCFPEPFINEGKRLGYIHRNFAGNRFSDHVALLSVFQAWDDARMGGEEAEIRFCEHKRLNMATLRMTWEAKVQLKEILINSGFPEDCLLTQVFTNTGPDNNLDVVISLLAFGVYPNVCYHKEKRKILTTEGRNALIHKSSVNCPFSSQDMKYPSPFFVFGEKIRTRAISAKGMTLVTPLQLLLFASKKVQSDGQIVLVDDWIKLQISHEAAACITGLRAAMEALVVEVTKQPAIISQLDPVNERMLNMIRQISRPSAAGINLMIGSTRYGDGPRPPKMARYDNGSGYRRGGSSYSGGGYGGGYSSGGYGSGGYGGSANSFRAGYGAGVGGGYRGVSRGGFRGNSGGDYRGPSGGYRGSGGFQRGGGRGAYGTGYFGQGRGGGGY

Biological target: DHX9 (human (endogenous in BC cell lines)) (UniProt Q08211)
Experiment: co-IP; whole-cell lysates (200-400 ug protein) of BC cells with 1-2 ug anti-DHX9, anti-RFFL or control IgG overnight, protein A/G agarose beads 1 h at 4 °C, western blotting; endogenous proteins; also in cells with LINC01016 overexpressed or knocked down (Fig. 5K)

binding: binds
B1: RING finger and FYVE-like domain-containing protein 1 (RFFL) (protein, UniProt Q8WZ73 1-363)
chain: MWATCCNWFCLDGQPEEVPPPQGARMQAYSNPGYSSFPSPTGLEPSCKSCGAHFANTARKQTCLDCKKNFCMTCSSQVGNGPRLCLLCQRFRATAFQREELMKMKVKDLRDYLSLHDISTEMCREKEELVLLVLGQQPVISQEDRTRASTLSPDFPEQQAFLTQPHSSMVPPTSPNLPSSSAQATSVPPAQVQENQQANGHVSQDQEEPVYLESVARVPAEDETQSIDSEDSFVPGRRASLSDLTDLEDIEGLTVRQLKEILARNFVNYKGCCEKWELMERVTRLYKDQKGLQHLVSGAEDQNGGAVPSGLEENLCKICMDSPIDCVLLECGHMVTCTKCGKRMNECPICRQYVIRAVHVFRS
